Measurements as given in US7919255B2, “Assessment of skeletal growth using measurements of NT-CNP peptides” (priority 2003, dated 2011).
“Also recorded” adds a separate entry of the source. For part of these data: For at least one compound, name, drawing or mass did not settle the structure. Some entries share one result that the patent states for a list of compounds.

Key:
[1] = system: J39 antisera; test: Cross reactivities of the NT-CNP radioimmunoassay using the J39 antisera; type: binding, rabbit; details: NT-CNP RIA
Description: Antiserum production: Human NT-CNP(1-15) (5 mg) was conjugated to 4.2 mg of bovine serum albumin (BSA, fraction V, GibcoBRL, Life Technologies) using 62.2 mg of 1-ethyl-3(3-dimethyaminopropyl) carbodiimide at pH 7 for 18 hours and dialysed against phosphate buffered saline. Rabbits were given a primary subcutaneous injection of the antigen after emulsification with an equal volume of complete Freunds adjuvant (Sigma Chemical Co., St Lois. Mo., USA). Subsequent injections using incomplete Freunds reagent were given at monthly intervals. Rabbits were bled two weeks after each injection and tested for binding of radioactive tracer and its displacement by NT-CNP (1-15) standards.
RIA for N-terminal CNP: NT-CNP(1-15)-Tyr^16 (5 μg) was iodinated using 0.5 mCi Na^125I in the presence of 10 μg chloramine-T in 5 μl 0.5M phosphate buffer, pH 7.5 for 30 seconds, followed by the addition of 50 μg cysteine, 25 μg BSA and 20 μg KI in 100 μl buffer. The resulting mixture was loaded onto a 10 m RP300 Brownlee column and eluted with a gradient from 0-60% acetonitrile in 49 mM KH2PO4 pH 2.9 over 30 min at 1 ml/min, collecting 0.5 ml fractions. The fraction containing the major peak of radioactive NT-CNP(1-15)-[^125I]Tyr^16 was used in the RIA. Peptide standards were made from synthetic human NT-CNP(1-19) taking into account the purity data supplied. All standards, sample extracts, antisera and tracer solutions were made up in RIA assay buffer consisting of 0.1% bovine serum albumin, 0.01% sodium azide, 0.1% triton X100, and 0.05% sodium chloride in 0.1M phosphate buffer pH 7.4. 200 μl of sample extract or 7-38,000 pM NT-CNP(1-19) standard (all in duplicate) were pre-incubated with 100 μl antiserum solution at a dilution of 1:6000 for 22 h at 4° C. prior to the addition of 100 μl tracer solution (NT-CNP(1-15)-[^125I]Tyr^16) containing 2000 cpm for a further 24 h at 4° C. Bound and free NT-CNP(1-15)-[^125I]Tyr^16 were separated by a solid phase second antibody method (Sac-cell, Donkey-Anti Rabbit, IDS Ltd, England). […]

[2] = system: 4 week old lambs; test: Dexamethasone 0.25 mg/kg/day for 15 days in 4 week old lambs versus saline; type: in vivo, sheep
Description: FIG. 12A, FIG. 12B, FIG. 12C and FIG. 12D: Effect of a glucocorticoid (dexamethasone, 0.25 mg/kg/day) (filled circles, n=8) or saline control treatment (open circles, n=8), administered to 4 week old lambs for 15 days, on (FIG. 12A) plasma NT-CNP (FIG. 12B) plasma alkaline phosphatase activity (FIG. 12C) metacarpal length and (FIG. 12D) body weight. Values are mean±SEM; and
In order to study a possible linkage between changes in NT-CNP and growth velocity, a more prolonged study was undertaken in younger growing lambs.
We undertook a study in normal lambs. Lambs (n=16, aged 4 weeks) either received dexamethasone (0.25 mg/kg/day) or saline injections (controls) for 15 days. The predictive effect of a plasma NT-CNP concentration (drawn 24 hours after starting treatment) on subsequent growth inhibition (defined as growth velocity less than 5% of that of control lambs) was examined by ROC curve analysis (FIG. 13). […] The area under the curve (AUC) was 0.85.

[3] = system: 12 week old lambs; test: Dexamethasone 0.25 mg/kg/day for 4 days in 12 week old lambs; type: in vivo, sheep; details: growing lambs
Description: (§1) FIG. 11A and FIG. 11B: Effect of 4 days of treatment with a glucocorticoid (dexamethasone, 0.25 mg/kg/day) in 12 week old lambs (filled circles, n=8) and in adult sheep (open circles, n=8) on (A) plasma NT-CNP and (B) change (?) in plasma alkaline phosphatase activity (ALP). Values are mean±SEM;
(§2) This differential response to dexamethasone was highly significant for both NT-CNP (F=5.4, p<0.001) and ALP (F=4.1, p=0.002). After 48 hours of dexamethasone treatment, plasma NT-CNP in lambs fell 30.8±3.5% from basal compared with 17.7±2.7% in adult sheep. Both the onset and offset of dexamethasone's action on NT-CNP preceded that of ALP (FIG. 11A and FIG. 11B).

[4] = system: adult sheep; test: Dexamethasone 0.25 mg/kg/day for 4 days in adult sheep; type: in vivo; details: compared with lambs
Description: as §1, §2

Compound: hproANP(1-30): peptide tested for cross reactivity in the NT-CNP radioimmunoassay (NPMYNAVSNADLMDFKNLLDHLEEKMPLED; Long-acting natriuretic peptide; UniProt P01160 26-55, looked up, fragment)
- Cross reactivity [1]: < 0.07%

Compound: C[C@@H]1C[C@H]2[C@@H]3CCC4=CC(=O)C=C[C@]4(C)[C@@]3(F)[C@@H](O)C[C@]2(C)[C@@]1(O)C(=O)CO [dexamethasone]
- effect on plasma NT-CNP ([2]; 0.25 mg/kg/day for 15 days): highly significant fall
- effect on plasma ALP activity ([2]; during the 15 day treatment period): decreased
- effect on plasma NT-CNP [3]: significantly reduces; also recorded: markedly reduced
- effect on plasma alkaline phosphatase (ALP) [3]: significantly reduces; also recorded: markedly reduced
- effect on plasma NT-CNP [4]: less so
- effect on plasma alkaline phosphatase (ALP) [4]: less so

Compound: hCNP-53: C-type natriuretic peptide, proCNP(51-103) (DLRVDTKSRAAWARLLQEHPNARKYKGANKKGLSKGCFGLKLDRIGSMSGLGC)
- Cross reactivity [1]: < 0.07%
- Cross reactivity ([1]; listed as CNP-53): less than 0.4%
